Data published in patent publication US20150322414A1 (UNITED KINGDOM RESEARCH AND INNOVATION, published 2015).
No constants are given. Whether binding was seen depends on the method and setting. Some binding calls cover weakened binding; strength is not graded here.

What was measured:
[1] = biological target: T1, Angiopoietin-2 (human, UniProt O15123 19-496, limits assumed); test: ELISA, Ang2 immobilised
T1 construct: also called Ang2; biotinylated Ang2
T1 sequence (looked up): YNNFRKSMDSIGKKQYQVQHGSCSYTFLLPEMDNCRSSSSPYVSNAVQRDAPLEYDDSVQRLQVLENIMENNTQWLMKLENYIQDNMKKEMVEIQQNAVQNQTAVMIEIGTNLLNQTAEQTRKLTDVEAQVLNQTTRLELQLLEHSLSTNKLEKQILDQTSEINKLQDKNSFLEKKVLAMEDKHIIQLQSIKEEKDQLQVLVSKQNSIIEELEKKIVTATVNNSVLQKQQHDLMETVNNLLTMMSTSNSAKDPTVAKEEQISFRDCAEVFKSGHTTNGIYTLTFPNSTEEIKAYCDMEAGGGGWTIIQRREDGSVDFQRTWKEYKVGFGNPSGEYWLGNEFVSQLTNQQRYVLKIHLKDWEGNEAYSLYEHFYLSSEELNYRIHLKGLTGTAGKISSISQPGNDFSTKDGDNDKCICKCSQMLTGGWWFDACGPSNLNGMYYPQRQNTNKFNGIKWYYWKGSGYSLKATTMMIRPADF

[2] = biological target: T1, Angiopoietin-2; test: ELISA, 5 µg/ml Ang2 immobilised, ectodomain-Fc 0-10 µg/ml, anti-Tie2 ectodomain antibody detection
[3] = biological target: T1, Angiopoietin-2; test: SPR as named in the filing (ForteBio Octet), ectodomain-Fc immobilised on the sensor, Ang2 in solution, concentrations not given
[4] = biological target: T1, Angiopoietin-2; test: ELISA on immobilised Ang2, ectodomain 0-50 µg/ml
[5] = biological target: T1, Angiopoietin-2; test: SPR
[6] = biological target: T1, Angiopoietin-2; test: SPR (ForteBio Octet), ectodomain-Fc immobilised
[7] = biological target: T1, Angiopoietin-2; test: SPR as named in the filing, panel headed 'Binding of R3 and R3 I161G binding to Ang2', concentrations not given
Procedure: Surface plasmon resonance was performed using a ForteBio Octet instrument (Pall Life Sciences). Fusion proteins were immobilised at 5 μg/ml on sensors and kinetic binding assays perfoinied as detailed by the manufacturer.

Measured: binding

F161I Tie2 ectodomain-Fc fusion protein (from UniProt Q02763 23-442)
binds: [1] | [2]

B1: Evolved (R3) Tie2 ectodomain-Fc fusion protein (F161I, ΔR167, ΔH168) (Fc fusion)
chain (part 1 of 2): AMDLILINSLPLVSDAETSLTCIASGWRPHEPITIGRDFEALMNQHQDPLEVTQDVTREWAKKVVWKREKASKINGAYFCEGRVRGEAIRIRTMKMRQQASFLPATLTMTVDKGDNVNISFKKVLIKEEDAVIYKNGSIIHSVPEVPDILEVHLPHAQPQDAGVYSARYIGGNLFTSAFTRLIVRRCEAQKWGPECNHLCTACMNNGVCHEDTGECICPPGFMGRTCEKACELHTFGRTCKERCSGQEGCKSYVFCLPDPYGCSCATGWKGLQCNEACHPGFYGPDCKLRCSCNNGEMCDRFQGCLCSPGWQGLQCEREGIQRMTPKIVDLPDHIEVNSGKFNPICKASGWPLPTNEEMTLVKPDGTVLHPKDFNHTDHFSVAIFTIHRILPPDSGVWVCSVNTVAGMVEKPFNISVK
chain (part 2 of 2): HHHHHH
notes: also called R3 ectodomain; evolved ectodomain; not shown: human Fc tag
binds: [3] | [4] | [5] | [6] | [1] | [7]

B2: Wild-type Tie2 ectodomain (1-442)-Fc fusion protein (Fc fusion)
chain (part 1 of 2): AMDLILINSLPLVSDAETSLTCIASGWRPHEPITIGRDFEALMNQHQDPLEVTQDVTREWAKKVVWKREKASKINGAYFCEGRVRGEAIRIRTMKMRQQASFLPATLTMTVDKGDNVNISFKKVLIKEEDAVIYKNGSFIHSVPRHEVPDILEVHLPHAQPQDAGVYSARYIGGNLFTSAFTRLIVRRCEAQKWGPECNHLCTACMNNGVCHEDTGECICPPGFMGRTCEKACELHTFGRTCKERCSGQEGCKSYVFCLPDPYGCSCATGWKGLQCNEACHPGFYGPDCKLRCSCNNGEMCDRFQGCLCSPGWQGLQCEREGIQRMTPKIVDLPDHIEVNSGKFNPICKASGWPLPTNEEMTLVKPDGTVLHPKDFNHTDHFSVAIFTIHRILPPDSGVWVCSVNTVAGMVEKPFNISVK
chain (part 2 of 2): HHHHHH
notes: Secreted from HEK293 cells, about 80 kDa, purified on Ni-NTA; also called wild-type ectodomain; Wt; not shown: human Fc tag
binds: [3] | [6] | [1] | [2]
